This passage reports binding results from paper PMC6536566.

The target of experiment [1] is T1, VN-SAPK10 (rice (Oryza sativa)) (UniProt Q75H77).
T1 sequence: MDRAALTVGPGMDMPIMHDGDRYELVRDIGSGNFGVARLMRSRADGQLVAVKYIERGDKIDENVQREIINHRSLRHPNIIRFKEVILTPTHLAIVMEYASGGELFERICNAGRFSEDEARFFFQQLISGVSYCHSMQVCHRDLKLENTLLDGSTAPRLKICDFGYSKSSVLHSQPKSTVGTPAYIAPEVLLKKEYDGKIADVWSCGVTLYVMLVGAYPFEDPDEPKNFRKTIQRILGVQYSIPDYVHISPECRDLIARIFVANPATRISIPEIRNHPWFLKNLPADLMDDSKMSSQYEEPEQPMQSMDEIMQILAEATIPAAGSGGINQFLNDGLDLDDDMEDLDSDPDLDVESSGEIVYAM
Description: split reporter; BiFC with Venus halves (VN, VC) co-expressed in rice protoplasts; confocal microscopy; ER-mCherry as internal control, Venus signal/mCherry signal.

Experiment [2] addresses N-terminal 25 amino acid deletion of OsSLAC1 (Δ25), GFP fusion (rice (Oryza sativa)). Description: co-IP; GFP fusion and Flag- or HA-tagged protein co-expressed in rice protoplasts; cellular extracts on GFP-trap beads, 4 °C, 2 h; 150 mM NaCl, 50 mM Tris-HCl pH 7.5, 0.5% NP40, 0.5% Triton X-100; immunoblot. (In western blotting, separated proteins are transferred to a membrane and probed.)

For experiment [3], the target named is Δ35 N-terminal deletion of N-OsSLAC1-GFP (rice (Oryza sativa)). The description is as above.
In experiment [4] the target is Δ50 N-terminal deletion of N-OsSLAC1-GFP (rice (Oryza sativa)). Described as above.
Experiment [5] has as its target VC-OsSLAC1 (rice (Oryza sativa)). Kind of experiment: split reporter; BiFC with Venus halves (VN, VC) co-expressed in rice protoplasts; confocal microscopy; ER-mCherry as internal control, Venus signal/mCherry signal.

No constants are given. Whether binding was seen depends on the method and setting. Binding seen in cells or lysates may run through a third protein. For some assays here: Binding can be weak; no strength is given. For some assays here: Tags and fused reporters may be left off the sequences shown.

Turning to OsSar1p-VC, in experiment [1], the binding result is recorded as “no binding”.

B1: OsPP2C53-HA (protein, UniProt Q6L4R7 1-445)
chain: MEDLALPAAPPAPTLSFTLLAAAAAVAEAMEEALGAALPPLTAPVPAPGDDSACGSPCSVASDCSSVASADFEGFAELGTSLLAGPAVLFDDLTAASVAVAEAAEPRAVGATARSVFAMDCVPLWGLESICGRRPEMEDDYAVVPRFFDLPLWMVAGDAAVDGLDRASFRLPAHFFAVYDGHGGVQVANYCRKRIHAVLTEELRRAEDDACGSDLSGLESKKLWEKAFVDCFSRVDAEVGGNAASGAPPVAPDTVGSTAVVAVVCSSHVIVANCGDSRAVLCRGKQPLPLSLDHKPNREDEYARIEALGGKVIQWNGYRVLGVLAMSRSIGDKYLKPYIIPVPEVTVVARAKDDDCLILASDGLWDVMSNEEVCDAARKRILLWHKKNAATASTSSAQISGDSSDPAAQAAADYLSKLALQKGSKDNITVVVIDLKAHRKFKSKA
Regarding B1, the results for the binding entry in experiment [2], in experiment [3] and in experiment [4] were “binds”, “no binding” and “no binding”, respectively.

B2: VN-SAPK10 (protein, UniProt Q75H77 1-362)
chain: T1 sequence
For the molecule B2, the binding entry in experiment [5] was “binds”.

B3: OsPP2C50-HA (protein, UniProt Q6L5H6 1-387)
chain: MAAAAAAAAICGEDETAARVGCTGEWAGGIERVDLGERKEAVAAAGAGKRSVYLMDCAPVWGCASTRGRSAEMEDASAAVPRFADVPVRLLASRRDLDALGLDADALRLPAHLFGVFDGHGGAEVANYCRERIHVVLSEELKRLGKNLGEMGEVDMKEHWDDVFTKCFQRVDDEVSGRVTRVVNGGGEVRSEPVTAENVGSTAVVALVCSSHVVVANCGDSRIVLCRGKEPVALSIDHKPDRKDERARIEAQGGKVIQWNGYRVSGILAMSRSIGDRYLKPFVIPKPEVMVVPRAKDDDCLILASDGLWDVVSNEEACKVARRQILLWHKNNGAASPLSDEGEGSTDPAAQAAADYLMRLALKKGSEDNITVIVVDLKPRKKLKNIS
On to B3, for which the binding entry in experiment [2] is listed as “binds”; in experiment [3], “no binding”; in experiment [4], “no binding”.
